Some entries share one result that the patent states for a list of compounds.
Tested on: GBS strain 6313
Assay: Binding of radiolabelled human proteins to GBS
Design: species or system Streptococcus agalactiae
Settings: GBS 6313 treated with trypsin or pronase
Description: Purified human fibrinogen was radiolabelled with ^125I, using the chloramin T method (Hunter and Greenwood, 1962). Binding of labelled fibrinogen to GBS was performed essentially as described by Chhatwal et al. (Chhatwal, Muller, and Blobel, 1983). Briefly, overnight cultures of GBS were pelleted by centrifugation, washed twice with phosphate-buffered saline supplemented with 0.02% Tween 20 (PBST) and adjusted photometrically to a transmission of 10% at 600 nm. A total of 0.2 ml of the bacterial suspension was added to 20 μl of ^125I-labelled fibrinogen containing 23 ng of fibrinogen. After incubation for 1 h at room temperature, the streptococci were sedimented by centrifugation and washed with 1 ml of PBST. The radioactivity of the pellet was finally measured in a gamma counter (Packard Instruments). The amount of bacterial-bound fibrinogen was calculated as the percentage of total radiolabelled fibrinogen added to the bacteria. In inhibition experiments, the binding of 23 ng of radiolabelled fibrinogen to 0.2 ml of GBS (T=10%) was determined in the presence of various amounts of FbsA fusion proteins, Bsp fusion protein or synthetic peptides. Each experiment was repeated at least three times in triplicate.
GBS strain 6313, belonging to serotype III, was tested in binding experiments for its interaction with radiolabelled human vitronectin, laminin, fibronectin, fibrinogen, and IgG. […]

trypsin was tested, and the “amount of bound fibrinogen after treatment of the bacteria with protease” value was “below 5%”.

From US7485710B2, “Nucleic acids coding for adhesion factor of group B streptococcus, adhesion factors of group B streptococcus and further uses thereof” (priority 2002, dated 2009)
